Series [1] can be described thus: general procedure: Fmoc solid-phase peptide synthesis; polystyrene 1% DVB with Fmoc-Rink amide linker, 0.44 mmoles/gram; DIC/HOBt and HBTU/HOBt/DIEA (double coupling). Particulars: whole synthesis, scale of the general procedure between 0.1 grams and 5 grams of starting resin.
Series [2] is described as follows: general procedure: Fmoc solid-phase peptide synthesis; polystyrene resin, 1% DVB, Fmoc-Rink amide linker, 0.44 mmoles/gram; DIC/HOBt and HBTU/HOBt/DIEA (double coupling). Particulars: whole synthesis, scale of the general procedure between 0.1 grams and 5 grams of starting resin.

Some peptides are written in HELM: one residue between dots, names in brackets for other building blocks, links after the first $. Square brackets hold non-standard residues; d marks the D form. Ends that are not written are not given here. * marks the point of attachment. 1Nal = N[C@@H](Cc1cccc2ccccc12)C(=O)O; d2Nal = N[C@H](Cc1ccc2ccccc2c1)C(=O)O; NMeV = CN[C@H](C(=O)O)C(C)C; Octanoyl = CCCCCCCC(=O)*; Dab = NCC[C@H](N)C(=O)O

Turning to PEPTIDE1{W.L.I.Q.[am]}$$$$V2.0, the “purity (crude or final not stated)” value in series [1] is recorded as 95%. Also, the “crude HPLC purity” value in series [2] was 95%.
Regarding “Ac-KWLI[Dab]LFHKK-NH2 (SMILES CC[C@H](C)[C@H](NC(=O)[C@H](CC(C)C)NC(=O)[C@H](Cc1c[nH]c2ccccc12)NC(=O)[C@H](CCCCN)NC(C)=O)C(=O)N[C@@H](CCN)C(=O)N[C@@H](CC(C)C)C(=O)N[C@@H](Cc1ccccc1)C(=O)N[C@@H](Cc1c[nH]cn1)C(=O)N[C@@H](CCCCN)C(=O)N[C@@H](CCCCN)C(N)=O)”, the “final HPLC purity” value in series [1] turned out to be 99%. Besides, in series [2], the “crude HPLC purity” value is 50% and the “final HPLC purity” value amounted to 99%.
On to “Octanoyl-KKWAIQLKK-NH2 (SMILES CCCCCCCC(=O)N[C@@H](CCCCN)C(=O)N[C@@H](CCCCN)C(=O)N[C@@H](Cc1c[nH]c2ccccc12)C(=O)N[C@@H](C)C(=O)N[C@H](C(=O)N[C@@H](CCC(N)=O)C(=O)N[C@@H](CC(C)C)C(=O)N[C@@H](CCCCN)C(=O)N[C@@H](CCCCN)C(N)=O)[C@@H](C)CC)”, for which the “purity (crude or final not stated)” value in series [1] is 95%. Besides, the “final HPLC purity” value in series [2] is 95%.
As for H-SKVKWLIQLFHK-NH2, the “crude purity (method not given)” value in series [1] came to 75%. The “crude HPLC purity” value in series [2] is reported as 75%.
Take “H-KK[d2Nal]LILLKK-NH2 (SMILES CC[C@H](C)[C@H](NC(=O)[C@H](CC(C)C)NC(=O)[C@@H](Cc1ccc2ccccc2c1)NC(=O)[C@H](CCCCN)NC(=O)[C@@H](N)CCCCN)C(=O)N[C@@H](CC(C)C)C(=O)N[C@@H](CC(C)C)C(=O)N[C@@H](CCCCN)C(=O)N[C@@H](CCCCN)C(N)=O)”: the “final HPLC purity” value in series [1] is given as 97%. In addition, in series [2], the “crude HPLC purity” value was 54% and the “final HPLC purity” value came out at 97%.
Regarding H-LIQLFHKK-NH2, the “crude purity (method not given)” value in series [1] is given as 84%. The “crude HPLC purity” value in series [2] is 84%.
For H-KKQLLLLKK-NH2, in series [1], the “final HPLC purity” value came out at 99%.
Turning to H-KWLIQLFH-NH2, in series [1], the “crude purity (method not given)” value was determined as 75%. Further, in series [2], the “crude HPLC purity” value is 75% and the “final HPLC purity” value is recorded as 98%.
Take H-LIQLFHK-NH2: the “crude purity (method not given)” value in series [1] is listed as 56%. For the same substance, in series [2], the “crude HPLC purity” value stood at 56%.
For the substance H-VKWLIQL-NH2, the “crude purity (method not given)” value in series [1] came out at 67%. Besides, the “crude HPLC purity” value in series [2] worked out at 67%.
Turning to H-SKVKWLIQLF-NH2, the “crude purity (method not given)” value in series [1] is reported as 79%. Moreover, in series [2], the “crude HPLC purity” value turned out to be 79%.
As to “PEPTIDE1{W.L.I.Q.L.F.H.K.K.[am]}$$$$V2.0”, the “crude purity (method not given)” value in series [1] is 84%. Besides, in series [2], the “crude HPLC purity” value was found to be 84% and the “final HPLC purity” value is listed as 95%.
As to “H-KWLI[Dab]LFHKK-NH2 (SMILES CC[C@H](C)[C@H](NC(=O)[C@H](CC(C)C)NC(=O)[C@H](Cc1c[nH]c2ccccc12)NC(=O)[C@@H](N)CCCCN)C(=O)N[C@@H](CCN)C(=O)N[C@@H](CC(C)C)C(=O)N[C@@H](Cc1ccccc1)C(=O)N[C@@H](Cc1c[nH]cn1)C(=O)N[C@@H](CCCCN)C(=O)N[C@@H](CCCCN)C(N)=O)”, the “final HPLC purity” value in series [1] and in series [2] was 97% throughout. In series [2], the “crude HPLC purity” value is 74%.
For H-SKVKWL-NH2, the “crude purity (method not given)” value in series [1] is reported as 76%. In addition, the “crude HPLC purity” value in series [2] was determined as 76%.
With H-HHWLIQLHH-NH2, the “final HPLC purity” value in series [1] is recorded as 94%. Besides, in series [2], the “crude HPLC purity” value is listed as 70% and the “final HPLC purity” value came to 94%.
With H-SKVKWLIQ-NH2, the “crude purity (method not given)” value in series [1] was determined as 68%. Also, in series [2], the “crude HPLC purity” value stood at 68%.
Take H-KVPWLIQLFHKK-NH2: the “final HPLC purity” value in series [1] was determined as 98%.
Turning to H-SKVKWLI-NH2, the “crude purity (method not given)” value in series [1] is given as 73%. For the same substance, the “crude HPLC purity” value in series [2] is 73%.
In the case of H-VKWLIQLF-NH2, the “crude purity (method not given)” value in series [1] amounted to 41%. In series [2], the “crude HPLC purity” value was found to be 41%.
“H-[Dab][Dab]WLIQL[Dab][Dab]-NH2 (SMILES CC[C@H](C)[C@H](NC(=O)[C@H](CC(C)C)NC(=O)[C@H](Cc1c[nH]c2ccccc12)NC(=O)[C@H](CCN)NC(=O)[C@@H](N)CCN)C(=O)N[C@@H](CCC(N)=O)C(=O)N[C@@H](CC(C)C)C(=O)N[C@@H](CCN)C(=O)N[C@@H](CCN)C(N)=O)”: in series [1], the “final HPLC purity” value is listed as 98%. Also, in series [2], the “crude HPLC purity” value came out at 74% and the “final HPLC purity” value is 98%.
For the substance H-WLIQLF-NH2, in series [1], the “crude purity (method not given)” value was determined as 85%. Besides, in series [2], the “crude HPLC purity” value turned out to be 85% and the “final HPLC purity” value is 98%.
On to H-SKVKWLIQLFH-NH2, for which the “crude purity (method not given)” value in series [1] is 58%. Besides, in series [2], the “crude HPLC purity” value worked out at 58%.
Regarding KKWAIQLKK-NH2 (C-terminus assumed), the “final HPLC purity” value in series [1] was 96%. Further, in series [2], the “crude HPLC purity” value stood at 71% and the “final HPLC purity” value was found to be 96%.
As to H-KKLLQLLKK-NH2, the “final HPLC purity” value in series [1] was found to be 99%.
Regarding PEPTIDE1{P.W.A.I.Q.L.K.K.[am]}$$$$V2.0, in series [1], the “final HPLC purity” value amounted to 97%.
Take KKLLLLQKK-NH2: the “final HPLC purity” value in series [1] came to 99%.
On the same count and under the same terms, the figure for H-KKLLLQLKK-NH2 is 99%.
In the case of “H-KSKVG[NMeV]LIQLFHKK-NH2 (SMILES CC[C@H](C)[C@H](NC(=O)[C@H](CC(C)C)NC(=O)[C@H](C(C)C)N(C)C(=O)CNC(=O)[C@@H](NC(=O)[C@H](CCCCN)NC(=O)[C@H](CO)NC(=O)[C@@H](N)CCCCN)C(C)C)C(=O)N[C@@H](CCC(N)=O)C(=O)N[C@@H](CC(C)C)C(=O)N[C@@H](Cc1ccccc1)C(=O)N[C@@H](Cc1c[nH]cn1)C(=O)N[C@@H](CCCCN)C(=O)N[C@@H](CCCCN)C(N)=O)”, the “crude HPLC purity” value in series [2] worked out at 75%.
Same read-out and setting: the figure for “H-KSKVGWLIQLF[1Nal]KK-NH2 (SMILES CC[C@H](C)[C@H](NC(=O)[C@H](CC(C)C)NC(=O)[C@H](Cc1c[nH]c2ccccc12)NC(=O)CNC(=O)[C@@H](NC(=O)[C@H](CCCCN)NC(=O)[C@H](CO)NC(=O)[C@@H](N)CCCCN)C(C)C)C(=O)N[C@@H](CCC(N)=O)C(=O)N[C@@H](CC(C)C)C(=O)N[C@@H](Cc1ccccc1)C(=O)N[C@@H](Cc1cccc2ccccc12)C(=O)N[C@@H](CCCCN)C(=O)N[C@@H](CCCCN)C(N)=O)” is 56%; for H-VKWLIQLFH-NH2 it is 64%.
For the substance H-IQLFHK-NH2, the “crude HPLC purity” value in series [2] was found to be 84%.
As to CD - 153-161 (CWLIQLFHKK), in series [2], the “crude HPLC purity” value worked out at 83% and the “final HPLC purity” value was 96%.
H-WLIQLKK-NH2: the “crude HPLC purity” value in series [2] stood at 69%.
Regarding H-SKWAIQLKK-NH2, the “final HPLC purity” value in series [1] is on record as 98%.
In the case of H-KSKVGWLIALFHKK-NH2, the “crude HPLC purity” value in series [2] came to 53%.
On the same count and under the same terms, the figure for H-KSKVGWLIFLFHKK-NH2 is 31%.
“K - K - L - L - L - L - Q - K - K (KKLLLLQKK)”: the “final HPLC purity” value in series [2] came to 99%.
As to H-KKWLIQL-NH2, the “crude HPLC purity” value in series [2] was determined as 66%.
Same read-out and setting: the figure for H-KSKVGILIQLFHKK-NH2 is 44%.
For the substance “H-KSKVG[1Nal]LIQLFHK[1Nal]-NH2 (SMILES CC[C@H](C)[C@H](NC(=O)[C@H](CC(C)C)NC(=O)[C@H](Cc1cccc2ccccc12)NC(=O)CNC(=O)[C@@H](NC(=O)[C@H](CCCCN)NC(=O)[C@H](CO)NC(=O)[C@@H](N)CCCCN)C(C)C)C(=O)N[C@@H](CCC(N)=O)C(=O)N[C@@H](CC(C)C)C(=O)N[C@@H](Cc1ccccc1)C(=O)N[C@@H](Cc1c[nH]cn1)C(=O)N[C@@H](CCCCN)C(=O)N[C@@H](Cc1cccc2ccccc12)C(N)=O)”, in series [2], the “crude HPLC purity” value is recorded as 57% and the “final HPLC purity” value is listed as over 99%.
In the case of H-KSKVFWLIQLFHKK-NH2, the “crude HPLC purity” value in series [2] is reported as 57%.
On the same count and under the same terms, the figure for H-KSKVGYLIQLFHKK-NH2 is 60%.
On to H-KSKVKWAIQLFHKK-NH2, for which, in series [2], the “crude HPLC purity” value is recorded as 58% and the “final HPLC purity” value is 97%.
Regarding “H-KSKVG[dW]LIQLFHKK-NH2 (SMILES CC[C@H](C)[C@H](NC(=O)[C@H](CC(C)C)NC(=O)[C@@H](Cc1c[nH]c2ccccc12)NC(=O)CNC(=O)[C@@H](NC(=O)[C@H](CCCCN)NC(=O)[C@H](CO)NC(=O)[C@@H](N)CCCCN)C(C)C)C(=O)N[C@@H](CCC(N)=O)C(=O)N[C@@H](CC(C)C)C(=O)N[C@@H](Cc1ccccc1)C(=O)N[C@@H](Cc1c[nH]cn1)C(=O)N[C@@H](CCCCN)C(=O)N[C@@H](CCCCN)C(N)=O)”, in series [2], the “crude HPLC purity” value was found to be 54%.
As to H-KSKVGWLIFLFHKKKSKVGWLIFLFHKK-NH2, the “crude HPLC purity” value in series [2] was found to be 34%.
On the same count and under the same terms, the figure for “H-KSKVGWLIQ[1Nal]FHKK-NH2 (SMILES CC[C@H](C)[C@H](NC(=O)[C@H](CC(C)C)NC(=O)[C@H](Cc1c[nH]c2ccccc12)NC(=O)CNC(=O)[C@@H](NC(=O)[C@H](CCCCN)NC(=O)[C@H](CO)NC(=O)[C@@H](N)CCCCN)C(C)C)C(=O)N[C@@H](CCC(N)=O)C(=O)N[C@@H](Cc1cccc2ccccc12)C(=O)N[C@@H](Cc1ccccc1)C(=O)N[C@@H](Cc1c[nH]cn1)C(=O)N[C@@H](CCCCN)C(=O)N[C@@H](CCCCN)C(N)=O)” is 65%; for H-KSKVGGLIQLFHKK-NH2 it is 46%.
On to H-KSKVGWLIQLFHKK-NH2, for which, in series [2], the “crude HPLC purity” value amounted to 69% and the “final HPLC purity” value is reported as 98%.
As for H-KSKVWLIQLFHKK-NH2, the “crude HPLC purity” value in series [2] amounted to 76%.
Same read-out and setting: the figure for H-KSKVGWLIQLFHKKKSKVGWLILLFHKK-NH2 is 31%; for H-KSKVGWLIQLFWKK-NH2 it is 55%.
Turning to “H-KSKVK[1Nal]LIQLFHKK-NH2 (SMILES CC[C@H](C)[C@H](NC(=O)[C@H](CC(C)C)NC(=O)[C@H](Cc1cccc2ccccc12)NC(=O)[C@H](CCCCN)NC(=O)[C@@H](NC(=O)[C@H](CCCCN)NC(=O)[C@H](CO)NC(=O)[C@@H](N)CCCCN)C(C)C)C(=O)N[C@@H](CCC(N)=O)C(=O)N[C@@H](CC(C)C)C(=O)N[C@@H](Cc1ccccc1)C(=O)N[C@@H](Cc1c[nH]cn1)C(=O)N[C@@H](CCCCN)C(=O)N[C@@H](CCCCN)C(N)=O)”, the “crude HPLC purity” value in series [2] is on record as 72%.
Still for that read-out and setting: the figure for H-KSAVGWLIQLFHKK-NH2 is 58%.
Turning to “S - K - 153-157 - K - K, A @ 154 (L) (SKWAIQLKK)”, the “final HPLC purity” value in series [2] was determined as 98%.

Values taken from patent publication US6664231B1 (priority 1993, dated 2003).
